# This is one part of the list.
# Protein sequences, listed by entry. Tags and fused reporters are not part of them.
# UniProt Q0JBA9, entry or part of it: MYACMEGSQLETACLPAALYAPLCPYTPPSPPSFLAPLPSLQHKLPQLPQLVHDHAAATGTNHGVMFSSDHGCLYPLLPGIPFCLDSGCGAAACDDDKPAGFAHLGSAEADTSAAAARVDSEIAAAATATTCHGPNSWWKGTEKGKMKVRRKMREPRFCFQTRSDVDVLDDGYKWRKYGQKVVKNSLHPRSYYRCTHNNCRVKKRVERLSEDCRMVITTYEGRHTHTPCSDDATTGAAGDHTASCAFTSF
# Target: OsWRKY34 (Oryza sativa, UniProt Q0JBA9 1-250)
# Test: protein-binding microarray (RPBM); PBS, 2% BSA, 51.3 ng/ul salmon testes DNA, 50 uM zinc acetate, 200 nM TF, 25 C, 1 h; high values mean tight binding
# Conditions: protein: recombinant; tags: N-terminal polyhistidine and DsRed monomer fusion (pET32a); label: CyDye5-dUTP incorporated in the synthesized complementary strand; 3' TTTTT single-stranded linker to array surface; dsDNA, one strand shown
# How it was run: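 In PBS with 2% BSA, salmon testes DNA and 50 µM zinc acetate, 200 nM protein was incubated on a custom Agilent array at 25 °C for 1 h and then washed off. The array had been made double-stranded by primer extension with Cy5-dUTP and blocked with 2% BSA. The proteins were transcription factors fused N-terminally to polyhistidine and DsRed, expressed in E. coli BL21-CodonPlus and purified on Ni–NTA. The binding signal is per-feature fluorescence intensity (arbitrary units) from an Axon 4000B scanner.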
row,Sequence,binding signal
1,AGTATTATGCCCTTTTTTACTGTATATGCTTAGTTTTTAGCGGAGTCACCTAGTGCAG,8190 fluorescence intensity (a.u.)
2,TTTGTTTTGAGCCGAACAAATCGGTAGTCAGTGGGCGGGGCGGAGTCACCTAGTGCAG,11900 fluorescence intensity (a.u.)
3,AGAGAGGAATGTACTGTACAATCCCCATTTTTTTCCCAAGCGGAGTCACCTAGTGCAG,8070 fluorescence intensity (a.u.)
4,TTTTTTTTTACCGGGAGGTGTCTAGGCTCGTTATGTTTTGCGGAGTCACCTAGTGCAG,8860 fluorescence intensity (a.u.)
5,TACCTAGTCCAATTGTTTGTGGATTGAATTTGTGTTGGTTCGGAGTCACCTAGTGCAG,10300 fluorescence intensity (a.u.)
6,GCGGGACTTGCAGATCCGAGCGGGCGGGGCGGGGCGGGTTCGGAGTCACCTAGTGCAG,22000 fluorescence intensity (a.u.)
7,TGGGGTTAAGTTCATGGGCCGCCTAATTGGGTCGGCATTACGGAGTCACCTAGTGCAG,8540 fluorescence intensity (a.u.)
8,CCAATTTTTATGGTCGGTTTGGTTCATTGGATGTACGTCACGGAGTCACCTAGTGCAG,9930 fluorescence intensity (a.u.)
9,GTACTCTTTTGGTTCTTACTGTACTCTTTAAAAAAAAGTTCGGAGTCACCTAGTGCAG,12100 fluorescence intensity (a.u.)
10,GTGCGGGCTTTCTTCCTAATTATATATATAAATGGTATAACGGAGTCACCTAGTGCAG,8530 fluorescence intensity (a.u.)
11,GTCCTCCGCCGCCGCCGCCTCCTCCGTCGACCCCGCTCGCCGGAGTCACCTAGTGCAG,9490 fluorescence intensity (a.u.)
12,CAAAATTTCGTGGAATTCAACCGCTTTTCGTCGGAACTGTCGGAGTCACCTAGTGCAG,9460 fluorescence intensity (a.u.)
13,CCGCCCACCACATATCCTTTTCCTTTTCTTTTCTTTTATTCGGAGTCACCTAGTGCAG,10300 fluorescence intensity (a.u.)
14,TTTCCGCTTTGTAATATATATTTATACCCCTTTCTTCTCTCGGAGTCACCTAGTGCAG,9110 fluorescence intensity (a.u.)
15,ACATTTTTGTGCAGCCTCTCAAGCCTTATCCTCGTCTCGCCGGAGTCACCTAGTGCAG,9120 fluorescence intensity (a.u.)
16,CCGAAGATATCAACCAAACAGACCCGAACTTCTTCCCATTCGGAGTCACCTAGTGCAG,8360 fluorescence intensity (a.u.)
17,TGCGACCCCTTTTTCCCGACCTTTCTACAGGCCATCCTCCCGGAGTCACCTAGTGCAG,9760 fluorescence intensity (a.u.)
18,ATGAACTTACTCCTTTCTTCTTCTTCTTCTTATTTTTTTTCGGAGTCACCTAGTGCAG,14200 fluorescence intensity (a.u.)
19,CACCTCTCCCATGGCACCACCACCACCCTGACGCCGACGCCGGAGTCACCTAGTGCAG,8180 fluorescence intensity (a.u.)
20,TGTTTGCACTTCATTCCATTCCATTCCACCTCCACTGCTTCGGAGTCACCTAGTGCAG,8390 fluorescence intensity (a.u.)
21,ATACACTGTCTGCACCCACCTCCAGCCTTTGGCACCATTGCGGAGTCACCTAGTGCAG,8660 fluorescence intensity (a.u.)

row,Sequence,binding signal
1,GACGTTTAGATGCTGCAATCGTGCTTGTCAACTTGTCATACGGAGTCACCTAGTGCAG,9170 fluorescence intensity (a.u.)
2,TAGTCTTTATGGGATGTATTTCGTTGAGCTAGCTATATGTCGGAGTCACCTAGTGCAG,8360 fluorescence intensity (a.u.)
3,GCTGTTATGTTACATGCCCTCCCTGAACTACTATTACTAGCGGAGTCACCTAGTGCAG,8080 fluorescence intensity (a.u.)
4,CTTCCACTGTCTTCTTCCTTCTTGCTTCCTCTCTTCTCTTCGGAGTCACCTAGTGCAG,8450 fluorescence intensity (a.u.)
5,TAGTATATATTTAGGTGTTTTCTCTGTCCTAATTCCTAACCGGAGTCACCTAGTGCAG,10100 fluorescence intensity (a.u.)
6,GTAATTCATAGCTGCTATTCCACATCCGCGCTAACGTCCACGGAGTCACCTAGTGCAG,9600 fluorescence intensity (a.u.)
7,AATAGTCACAGTTCTCGATTAGTTCTACAATTTTGTTATTCGGAGTCACCTAGTGCAG,8920 fluorescence intensity (a.u.)
8,CTTCTATCATCAACGACAAATCTCCCGTTGTCTTGTCTTCCGGAGTCACCTAGTGCAG,9520 fluorescence intensity (a.u.)
9,AACAATTATATTTTATTCTCTTATGTCACGCCTTAAGCTTCGGAGTCACCTAGTGCAG,9460 fluorescence intensity (a.u.)
10,ATATTGCAAGCCCAAAAAGCCCATCTAACCTATCATATATCGGAGTCACCTAGTGCAG,8520 fluorescence intensity (a.u.)
11,TTGTGTCCTTTTCGCCTTCCTTCGCATGCACCAGACAAGTCGGAGTCACCTAGTGCAG,9280 fluorescence intensity (a.u.)
12,ACTTGTTCTTCGATCGTCTTCATCTCGGATAGCGCCTGTCCGGAGTCACCTAGTGCAG,8900 fluorescence intensity (a.u.)
13,TTTGGCGCGCCTAGTATTTATAGCCTGTATACAACACTTACGGAGTCACCTAGTGCAG,9400 fluorescence intensity (a.u.)
14,TCTGTATTAGCGTTCGGTTGTTTTATTTGACTTTCCAAATCGGAGTCACCTAGTGCAG,8360 fluorescence intensity (a.u.)
15,AGTTTCCACTGATCTCCAGCGCTTTTTGGATCGACGGCGACGGAGTCACCTAGTGCAG,8480 fluorescence intensity (a.u.)
16,TCATGTTGTCTATTGCTGTTCTTGTTCCCATTTGCACGTTCGGAGTCACCTAGTGCAG,11700 fluorescence intensity (a.u.)
17,ACCACGCGCCGCCCAAAACCTCCGCCGCGTTTCGCACCACCGGAGTCACCTAGTGCAG,9630 fluorescence intensity (a.u.)
18,CTACTTCGAGCATCGCCGCCGCGTTTCCCAGCTGCCACTGCGGAGTCACCTAGTGCAG,9910 fluorescence intensity (a.u.)
19,GCGTGTGTATATATTGGTGTGGAGGAGGAGGAGAAAGGGGCGGAGTCACCTAGTGCAG,8500 fluorescence intensity (a.u.)
20,CAGCAGCCGCCTCGCATTCTCACTTGCGATCCAAAATTAACGGAGTCACCTAGTGCAG,8280 fluorescence intensity (a.u.)
21,CTCGCTGATTTCGCTCTTTCCATATTCCCCAAGTCAAAAACGGAGTCACCTAGTGCAG,13800 fluorescence intensity (a.u.)

# Exported with tabs: part of the list above
row	Sequence	binding signal
7	AATAGTCACAGTTCTCGATTAGTTCTACAATTTTGTTATTCGGAGTCACCTAGTGCAG	8920 fluorescence intensity (a.u.)
14	TCTGTATTAGCGTTCGGTTGTTTTATTTGACTTTCCAAATCGGAGTCACCTAGTGCAG	8360 fluorescence intensity (a.u.)
19	GCGTGTGTATATATTGGTGTGGAGGAGGAGGAGAAAGGGGCGGAGTCACCTAGTGCAG	8500 fluorescence intensity (a.u.)

# Source: paper PMC7819943, “Rice protein-binding microarrays: a tool to detect cis-acting elements near promoter regions in rice”
